Some results were stated once for a whole list of compounds, not compound by compound. At least one structure is not confirmed: it was looked up by name or label, or the drawing left a doubt.
Tested on: CHO-GFP cells
Experiment: Cell viability assay (1), MTS
Format: cell-based
Conditions: 24 h, serum-free media, amine concentration at 50% relative cell viability
Experimental: FIG. 3 depicts cell viabilities of 1, 2, 3, Chol-PVA-PEG and Chol-PVA-PEG+1 host:guest pendant polymer complexes in CHO-GFP cells using 25 kD bPEI as control.
The cytotoxicity of the amino-CD derivatives in comparison with bPEI (25 kDa) was evaluated using the MTS assay in CHO-GFP cell lines. The relative cell viabilities were measured as a function of amine densities of the polymers. […] After 24 h, culture media were replaced with serum-free culture media containing increasing amine concentrations of amino-CD, polymer and the polymer:CD complexes and the cells were incubated for 24 h. After 24 h, 15 μl of MTS reagent was added to each well and incubated for 2 h. […] All experiments were conducted for three samples and averaged. […] In this study, LD50 was the concentration of a gene carrier at which the relative cell viability decreased to 50%.

Row | SMILES | LD50
1 | NC[C@H]1O[C@@H]2O[C@H]3[C@H](O)[C@@H](O)[C@@H](O[C@H]4[C@H](O)[C@@H](O)[C@@H](O[C@H]5[C@H](O)[C@@H](O)[C@@H](O[C@H]6[C@H](O)[C@@H](O)[C@@H](O[C@H]7[C@H](O)[C@@H](O)[C@@H](O[C@H]8[C@H](O)[C@@H](O)[C@@H](O[C@H]1[C@H](O)[C@H]2O)O[C@@H]8CO)O[C@@H]7CO)O[C@@H]6CO)O[C@@H]5CO)O[C@@H]4CO)O[C@@H]3CO [Compound 1, mono-6-amino-6-deoxy-β-cyclodextrin] | > 10 mM
2 | NCCNCCNC[C@H]1O[C@@H]2O[C@H]3[C@H](O)[C@@H](O)[C@@H](O[C@H]4[C@H](O)[C@@H](O)[C@@H](O[C@H]5[C@H](O)[C@@H](O)[C@@H](O[C@H]6[C@H](O)[C@@H](O)[C@@H](O[C@H]7[C@H](O)[C@@H](O)[C@@H](O[C@H]8[C@H](O)[C@@H](O)[C@@H](O[C@H]1[C@H](O)[C@H]2O)O[C@@H]8CO)O[C@@H]7CO)O[C@@H]6CO)O[C@@H]5CO)O[C@@H]4CO)O[C@@H]3CO [Compound 3, Mono-6-(N′-(2-aminoethyl)ethane-1,2-diamine)-6-deoxy-β-cyclodextrin] | > 10 mM
